In this data set the test system is tumor tissue samples (CRC and other tumor types) compared to a panel of normal tissues. In words: Identification and label-free relative LC-MS quantitation of HLA-presented peptides (presentation profiles, over-presentation). Further details: species or system human. As to conditions: positive/measured samples, FIG. 1 legend (not shown).

Turning to “1 (ALIKQLFEA; listed as Homo sapiens) [compound 1]”, the “peptide additionally detected on prostate cancers” value is reported as 1/33.

These data come from patent US10221225B2, “Peptides and combination of peptides and scaffolds thereof for use in immunotherapy against colorectal carcinoma (CRC) and other cancers” (immatics biotechnologies GmbH, priority 2015, dated 2019).
